Results are given in words; binding and its absence hold for the method and conditions named. Some results given as binding are weak or reduced against the parent protein; the word gives no strength. Sequences can lack the tags named with a protein.

Sequences of proteins named here, by UniProt entry; tags and fusion partners are left off.
UniProt O43156: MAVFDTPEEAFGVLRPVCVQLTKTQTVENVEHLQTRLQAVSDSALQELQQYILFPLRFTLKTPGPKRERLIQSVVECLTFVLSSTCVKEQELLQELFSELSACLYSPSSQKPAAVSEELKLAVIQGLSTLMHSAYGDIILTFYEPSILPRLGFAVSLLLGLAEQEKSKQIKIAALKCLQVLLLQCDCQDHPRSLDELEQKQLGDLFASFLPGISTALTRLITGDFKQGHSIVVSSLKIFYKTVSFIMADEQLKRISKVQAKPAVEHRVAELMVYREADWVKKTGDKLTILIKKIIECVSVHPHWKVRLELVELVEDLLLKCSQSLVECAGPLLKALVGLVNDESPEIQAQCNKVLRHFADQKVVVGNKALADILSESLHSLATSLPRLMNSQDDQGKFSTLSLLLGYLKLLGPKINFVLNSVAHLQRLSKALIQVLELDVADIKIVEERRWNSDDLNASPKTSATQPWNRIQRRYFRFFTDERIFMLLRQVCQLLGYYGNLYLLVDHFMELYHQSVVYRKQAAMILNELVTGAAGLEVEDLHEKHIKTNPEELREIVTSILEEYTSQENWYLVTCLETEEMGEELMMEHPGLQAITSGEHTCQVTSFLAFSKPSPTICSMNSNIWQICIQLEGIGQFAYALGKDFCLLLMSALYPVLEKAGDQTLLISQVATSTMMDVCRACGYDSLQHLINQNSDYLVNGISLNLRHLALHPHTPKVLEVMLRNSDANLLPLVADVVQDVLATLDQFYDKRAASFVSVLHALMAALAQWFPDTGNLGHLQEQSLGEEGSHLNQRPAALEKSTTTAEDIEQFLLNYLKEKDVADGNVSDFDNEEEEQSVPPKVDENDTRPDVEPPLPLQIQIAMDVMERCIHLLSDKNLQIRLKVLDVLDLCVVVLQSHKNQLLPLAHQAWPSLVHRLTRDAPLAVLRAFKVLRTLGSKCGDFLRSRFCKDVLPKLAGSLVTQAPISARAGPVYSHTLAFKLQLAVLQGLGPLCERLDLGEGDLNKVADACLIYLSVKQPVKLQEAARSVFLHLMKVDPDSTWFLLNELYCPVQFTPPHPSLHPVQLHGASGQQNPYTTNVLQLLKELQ

Results on one molecule are retold here after article PMC12582974.

This experiment addresses TwinStrep-3xHA-3C-TTI1 (human) (UniProt O43156). Briefly: co-purification on affinity resin after co-expression; TwinStrep-3xHA-TTI1 and untagged TTI2 co-expressed in Sf9; StrepTactinXT resin in TTT buffer (100 mM Tris pH 8, 300 mM NaCl), elution with 50 mM biotin.

B1: untagged TTI2 (co-expressed with TTI1 in insect cells) (protein, UniProt Q6NXR4 1-508)
chain: MELDSALEAPSQEDSNLSEELSHSAFGQAFSKILHCLARPEARRGNVKDAVLKDLGDLIEATEFDRLFEGTGARLRGMPETLGQVAKALEKYAAPSKEEEGGGDGHSEAAEKAAQVGLLFLKLLGKVETAKNSLVGPAWQTGLHHLAGPVYIFAITHSLEQPWTTPRSREVAREVLTSLLQVTECGSVAGFLHGENEDEKGRLSVILGLLKPDLYKESWKNNPAIKHVFSWTLQQVTRPWLSQHLERVLPASLVISDDYQTENKILGVHCLHHIVLNVPAADLLQYNRAQVLYHAISNHLYTPEHHLIQAVLLCLLDLFPILEKTLHWKGDGARPTTHCDEVLRLILTHMEPEHRLLLRRTYARNLPAFVNRLGILTVRHLKRLERVIIGYLEVYDGPEEEARLKILETLKLLMQHTWPRVSCRLVVLLKALLKLICDVARDPNLTPESVKSALLQEATDCLILLDRCSQGRVKGLLAKIPQSCEDRKVVNYIRKVQQVSEGAPYNGT
As for B1, the binding result is “binds”.
